From PubChem BioAssay AID2551 (National Center for Advancing Translational Sciences (NCATS), 2010)
About 17,000 (5.5%) of roughly 310,000 compounds were called active. The shares of active, inactive and inconclusive entries below differ from those in the screen. The call rests on the fitted dose curve; in most records, active means well fitted inhibition curve with a large enough effect; inconclusive means small, poorly fitted or top-dose-only effect, or effect the other way; inactive means no such curve, though single readings can be large or run the other way. Potencies beside an inconclusive call are fits to weak or partial responses and may not hold up.

By UniProt entry, the sequences of proteins in these tests, tags left out. Where a name states a change or a piece, a line headed by the entry shows the natural chain unless it says otherwise.
UniProt P51450: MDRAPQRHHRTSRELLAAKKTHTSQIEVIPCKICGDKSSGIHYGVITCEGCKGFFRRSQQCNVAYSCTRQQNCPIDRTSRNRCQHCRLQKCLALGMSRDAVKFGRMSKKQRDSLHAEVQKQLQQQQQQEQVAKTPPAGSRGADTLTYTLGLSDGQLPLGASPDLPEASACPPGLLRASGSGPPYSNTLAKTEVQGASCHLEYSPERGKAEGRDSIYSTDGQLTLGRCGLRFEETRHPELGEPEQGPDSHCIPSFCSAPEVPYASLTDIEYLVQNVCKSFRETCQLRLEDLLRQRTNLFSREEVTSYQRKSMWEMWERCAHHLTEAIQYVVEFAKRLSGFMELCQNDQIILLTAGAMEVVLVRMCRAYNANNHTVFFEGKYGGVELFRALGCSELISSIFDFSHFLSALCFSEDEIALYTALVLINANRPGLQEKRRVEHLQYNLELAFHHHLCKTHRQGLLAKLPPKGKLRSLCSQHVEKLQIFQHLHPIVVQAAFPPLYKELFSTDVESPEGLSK

target: Nuclear receptor ROR-gamma (Mus musculus) (UniProt P51450); test: qHTS for inhibitors of ROR gamma transcriptional activity; details: Drosophila S2 Gal4-RORgamma UAS-luciferase reporter, 20 h; series mostly up to 53.6 µM; further: nearly all actives have a fitted effect of over 60% in size
How it was run: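 Drosophila S2 cells stably expressing Gal4-DBD/mouse RORγ fusion under metallothionein promoter plus UAS-luciferase; compound 1 h, then 700 uM CuSO4 induction for 20 h at ambient temperature; inhibition read as reduced luminescence.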
Potency means the concentration at half of the fitted maximal effect.

Potency, inactive:
O=S1(=O)CCO[C@H]2Cc3ccccc3[C@H]2N1Cc1ccc(Cl)cc1
N#CCSc1nc2ccccc2c(=O)n1CCC(=O)NCCc1ccccc1
Cc1ccc(-c2c[n+](CC(=O)Nc3nc(-c4ccc(F)cc4)cs3)c3n2CCC3)cc1
Cc1csc(N/N=C/c2ccc([N+](=O)[O-])cc2)n1
COc1ccc(CCn2c(C3CCCCC3)nc3c(c(=O)c4ccccc4n3C)c2=O)cc1
COc1ccc2cc(C(=O)N3CCCCCC3)sc(=O)c2c1OC
CSc1nnc(CCCCCCCCc2nnc(SC)o2)o1
CC1(C)C(OC(=O)CCC(=O)O)CC[C@]2(C)C1CC[C@@]1(C)C2C(=O)C=C2[C@@H]3C[C@@](C)(C(=O)O)CC[C@]3(C)CCC21C (stereo partly specified)
CC[C@H](C)[C@H](NC(=O)[C@H](CC(=O)O)NC(=O)[C@H](CC(C)C)NC(=O)[C@H](NC(C)=O)C(c1ccccc1)c1ccccc1)C(=O)N[C@H](C(=O)N[C@@H](Cc1c[nH]c2ccccc12)C(=O)O)[C@@H](C)CC
O=S(=O)(c1ccccc1)N1CCC[C@@]2(CCN(c3ccccc3)C2)C1
COc1ccc(F)c(CN2CCC(N3CCC(C(=O)N4CCOCC4)CC3)CC2)c1
O=C(COc1ncnc2c1cnn2-c1ccccc1)Nc1ccc(S(=O)(=O)N2CCCCC2)cc1
COc1ccc(-c2nc(N)ncc2-c2ccc(Cl)cc2)c(O)c1
CCn1c(SCc2cccnc2)nnc1-c1c[nH]c2ccccc12

Potency, active:
CC(=O)N/C(N)=N/c1nc2cc(C)ccc2o1 11.2 µM
COc1cc(C(=O)NC(=S)N(C)Cc2ccccc2)cc(OC)c1OC 0.562 µM
CCNC(=S)NNC(=O)c1ccccn1 8.91 µM
Cc1ccc(C(=O)Nc2nccs2)cc1S(=O)(=O)N1CCCCC1 14.1 µM
CC(=O)[C@]1(O)Cc2c(O)c3c(c(O)c2[C@@H](O[C@H]2C[C@H](N)[C@H](O)[C@H](C)O2)C1)C(=O)c1c(O)cccc1C3=O 3.55 µM
C/C(=N\NC(=O)c1ccccc1)c1nc2ccccc2n1C 1.58 µM
CSCc1cc(N(C)C)nc(SCc2ccc(Cl)c(Cl)c2)n1 11.2 µM
CC#CCOC(=O)c1c(C)nc2sc3c(c2c1N)CC[C@@H](O)C3 7.08 µM
CN(C)c1ccc(NC(=O)/C=C/c2ccccc2Cl)cc1 0.0562 µM
CCCn1c(C(C)Nc2nc(-c3ccc(C)cc3)cs2)nc2ccccc21 (stereo unspecified) 5.62 µM

Potency, inconclusive:
Cc1nc2sc(C(=O)c3ccccc3)c(N)c2c2c1CCCC2 5.62 µM [activator, partial curve]
COc1ccc(CN(N=O)C2CC(=O)N(c3ccc(OC)cc3)C2=O)cc1 (stereo unspecified) 11.2 µM [activator, partial curve, poor fit]
CC1CCCN(C(=O)c2cc3c(-c4ccc(Cl)cc4)nn(C)c3s2)C1 (stereo unspecified) 11.2 µM [activator, partial curve, poor fit]
O=C(c1cc(F)ccc1F)C1CCCN(C(=O)c2ccc(F)cc2Cl)C1 (stereo unspecified) 10 µM [activator, partial curve]
Cc1nc2ncnn2c(N2CCN(C(c3ccccc3)c3ccccc3)CC2)c1C 17.8 µM [activator, partial curve, poor fit]
CC(C)Oc1cccc(C(=O)NC(=S)Nc2ccccc2)c1 2.82 µM [inhibitor, single point]
O=C(COC(=O)c1ccccc1C(=O)N1CCN(c2ccccc2)CC1)Nc1ccc(F)cc1 31.6 µM [activator, single point]
Cc1cc(C)cc(C(=O)NC(=S)Nc2ccc3c(c2)OCCO3)c1 0.0316 µM [inhibitor, full curve, poor fit]
CCCCNC(=O)N1CCN(c2ccnc3cc(Cl)ccc23)CC1 35.5 µM [activator, single point]
CC1CCCC(NC(=O)CCC(=O)c2ccc(F)cc2)C1C (stereo unspecified) 5.62 µM [activator, single point]
CCCCCCOc1ccc(N2C(=O)CC(S/C(N)=N/N=C(\C)c3cccs3)C2=O)cc1 (stereo unspecified) 35.5 µM [inhibitor, single point]
CC(c1nnnn1C(C)(C)C)N(Cc1cccnc1)Cc1ccccc1Cl (stereo unspecified) 35.5 µM [inhibitor, single point]
Cc1ccsc1C1C2=C(CC(C)(C)CC2=O)Nc2ncnn21 (stereo unspecified) 25.1 µM [activator, single point]
O=C(N/N=C/c1ccoc1)c1ccc(Cl)cc1 25.1 µM [inhibitor, single point]
C/[N+]([O-])=C\c1cccc(OCCN2CCN(c3ncc(C(F)(F)F)cc3Cl)CC2)c1 2.51 µM [activator, single point]
O=C(Nc1ccc[n+](CC(=O)c2cccc3ccccc23)c1)c1ccccc1 35.5 µM [inhibitor, single point]
O=C1/C(=C/c2ccc([N+](=O)[O-])cc2)CCc2ccccc21 35.5 µM [inhibitor, single point]
O=C(Nc1ccccc1)Nc1nnc(CSCc2ccccc2Cl)s1 7.94 µM [activator, partial curve]
Cc1ccc(NS(=O)(=O)c2ccc(C(=O)NCC3CCCO3)cc2)cc1 (stereo unspecified) 25.1 µM [activator, single point]
CCCNC(=O)OCc1cccnc1Sc1ccc(C)cc1 6.31 µM [activator, partial curve]
CC(C)(C)c1ccc(/C=C/C(=O)N2CCc3ccccc3C2)cc1 35.5 µM [inhibitor, single point]
c1ccc(-c2nc(Sc3ncnc4c3cnn4-c3ccccc3)n[nH]2)cc1 22.4 µM [inhibitor, single point]

As a short view, part of the list above:
Potency, inconclusive:
O=C(COC(=O)c1ccccc1C(=O)N1CCN(c2ccccc2)CC1)Nc1ccc(F)cc1 31.6 µM [activator, single point]
Cc1cc(C)cc(C(=O)NC(=S)Nc2ccc3c(c2)OCCO3)c1 0.0316 µM [inhibitor, full curve, poor fit]
